Reference: patent publication US10835513B2, “Methods and treatments for the learning and memory deficits associated with Noonan syndrome” (The Regents of the University of California, priority 2013, dated 2020)

Test system: Ptpn11^D61G/+ mice
Assay: Morris water maze (hidden platform) in Ptpn11^D61G/+ mice treated with lovastatin
Format: in vivo
Details: lovastatin 10 mg/kg s.c.
Method: FIG. 6 are graphs showing that Lovastatin treatment reverses spatial learning and memory and LTP deficits in Ptpn11^D61G/+ mice. […] Left, Representative immunoblot showing p-Erk (upper) and total Erk (lower) levels in Ptpn11^D61G/+ mice and WT. Hippocampi were dissected 6 hr after the 4th day of lovastatin injection (subcutaneous (s.c.) injections, 10 mg/kg). Right, Bar graph displaying normalized p-Erk levels (mean±s.e.m.). n=7-8 per group. t-test, *P<0.05. […] Two-way ANOVA followed by Bonferroni post-test, WT/Veh vs. Ptpn11^D61G/+/Veh, *P<0.05, **P<0.01; Ptpn11^D61G/+/Veh vs. Ptpn11^D61G/+/Lova, +P<0.05. […] Two-way ANOVA with genotype as between-subjects factor and drug treatment as within-subjects factor, effect of genotype: F(1, 45)=19.79, ***P<0.0001, interaction: F (1,45)=0.4489, P=0.506.
SL327 (Tocris) was dissolved in DMSO (16 mg/ml) and was injected intraperitoneally once daily, 30 min before the water maze experiment at a dose of 32 mg/kg. The volume of a single injection was under 80 μl. Lovastatin (Mevinolin, Sigma) was prepared as previously described^21. […]
In the hidden platform-version of Morris water maze, mice were trained with two blocks of 2 trials (ITI=1 min) spaced about 45 min apart. […] Memory was assessed in probe trials that were given after completion of training as described in the main text. […] Data were acquired and analyzed using WaterMaze software (Actimetrics).

CC[C@H](C)C(=O)O[C@H]1C[C@@H](C)C=C2C=C[C@H](C)[C@H](CC[C@@H]3C[C@@H](O)CC(=O)O3)[C@H]21 [Lovastatin]
swimming speed (Ptpn11^D61G/+ (D61G) mice): 14.2 ± 1.1 cm/s
swimming speed (WT mice): 17.9 ± 0.8 cm/s
